Record: PubChem BioAssay AID1159618 (Peter MacCallum Cancer Centre, 2016)

- Test: 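Find genes whose knock-down reduces blood or lymphatic endothelial cell migration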 (follow-up of hits)
- Cell system: human HMBEC blood microvascular and HDLEC dermal lymphatic endothelial cells
- Reagents: siRNA pool against human genes, 40 nM
- Detection: 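Automated imaging of scratched monolayers; area filled by migrating cells relative to the mean of mock-transfected wells, averaged over two replicates; nuclei also counted per well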
- Direction: migration vs mock, HMBEC and migration vs mock, HDLEC: higher = more migration into the scratch
- Hit rule: 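Called impaired when migration drops below 0.65 of mock in HMBEC, HDLEC or both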
- Meaning of the calls: active = migration impaired; inactive = no change
Here is an unselected part of 153 reagents. 111 of all reagents (73%) were called active. 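Migration not corrected for cell number; some knock-downs also lowered nuclei counts, so reduced closure may partly reflect fewer cells.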 Not all columns of the deposit are shown. The record does not give: the time to read-out.

For DOT1L, what was measured?
cell type with impaired migration: impaired only in lymphatic endothelial cells; migration vs mock, HMBEC: 0.672; migration vs mock, HDLEC: 0.568; call: active

What did the screen give for RAD21?
cell type with impaired migration: impaired only in lymphatic endothelial cells; migration vs mock, HMBEC: 0.795; migration vs mock, HDLEC: 0.582; call: active

How did the screen score PLCG1?
cell type with impaired migration: impaired in both blood and lymphatic cells; migration vs mock, HMBEC: 0.547; migration vs mock, HDLEC: 0.59; call: active

For CEPT1, what does the deposit list?
cell type with impaired migration: impaired in both blood and lymphatic cells; migration vs mock, HMBEC: 0.466; migration vs mock, HDLEC: 0.619; call: active

For NDUFA7, what was measured?
cell type with impaired migration: impaired only in lymphatic endothelial cells; migration vs mock, HMBEC: 0.651; migration vs mock, HDLEC: 0.63; call: active

For CRABP2, what was measured?
cell type with impaired migration: no change in either cell type; migration vs mock, HMBEC: 0.882; migration vs mock, HDLEC: 0.901; call: inactive

For SLC26A11, what does the deposit list?
cell type with impaired migration: impaired only in lymphatic endothelial cells; migration vs mock, HMBEC: 0.662; migration vs mock, HDLEC: 0.446; call: active

With MESP2, what was measured?
cell type with impaired migration: impaired in both blood and lymphatic cells; migration vs mock, HMBEC: 0.536; migration vs mock, HDLEC: 0.585; call: active

What did the screen give for AOC3?
cell type with impaired migration: no change in either cell type; migration vs mock, HMBEC: 0.815; migration vs mock, HDLEC: 0.754; call: inactive

What is on record for DBP?
cell type with impaired migration: impaired in both blood and lymphatic cells; migration vs mock, HMBEC: 0.567; migration vs mock, HDLEC: 0.432; call: active

For APOA2, how do the results read?
cell type with impaired migration: impaired in both blood and lymphatic cells; migration vs mock, HMBEC: 0.439; migration vs mock, HDLEC: 0.422; call: active

For GNAS, what does the deposit list?
cell type with impaired migration: impaired in both blood and lymphatic cells; migration vs mock, HMBEC: 0.493; migration vs mock, HDLEC: 0.177; call: active

What is on record for TYRO3?
cell type with impaired migration: impaired only in blood endothelial cells; migration vs mock, HMBEC: 0.472; migration vs mock, HDLEC: 0.751; call: active

How did the screen score SGK3?
cell type with impaired migration: impaired only in blood endothelial cells; migration vs mock, HMBEC: 0.563; migration vs mock, HDLEC: 0.806; call: active

How did the screen score FBXW11?
cell type with impaired migration: impaired in both blood and lymphatic cells; migration vs mock, HMBEC: 0.628; migration vs mock, HDLEC: 0.577; call: active

With PLPP1, what was measured?
cell type with impaired migration: no change in either cell type; migration vs mock, HMBEC: 1.1; migration vs mock, HDLEC: 0.928; call: inactive

Reprinted from the listing for reference:
CRABP2 → cell type with impaired migration: no change in either cell type; migration vs mock, HMBEC: 0.882; migration vs mock, HDLEC: 0.901; call: inactive
SLC26A11 → cell type with impaired migration: impaired only in lymphatic endothelial cells; migration vs mock, HMBEC: 0.662; migration vs mock, HDLEC: 0.446; call: active
MESP2 → cell type with impaired migration: impaired in both blood and lymphatic cells; migration vs mock, HMBEC: 0.536; migration vs mock, HDLEC: 0.585; call: active
AOC3 → cell type with impaired migration: no change in either cell type; migration vs mock, HMBEC: 0.815; migration vs mock, HDLEC: 0.754; call: inactive
DBP → cell type with impaired migration: impaired in both blood and lymphatic cells; migration vs mock, HMBEC: 0.567; migration vs mock, HDLEC: 0.432; call: active

The list goes on:
For SETD2, what does the deposit list?
cell type with impaired migration: no change in either cell type; migration vs mock, HMBEC: 0.939; migration vs mock, HDLEC: 0.791; call: inactive

What did the screen give for NUDT2?
cell type with impaired migration: no change in either cell type; migration vs mock, HMBEC: 0.766; migration vs mock, HDLEC: 0.925; call: inactive

What did the screen give for CHST5?
cell type with impaired migration: impaired only in blood endothelial cells; migration vs mock, HMBEC: 0.535; migration vs mock, HDLEC: 0.676; call: active

For UBE2O, what does the deposit list?
cell type with impaired migration: impaired only in blood endothelial cells; migration vs mock, HMBEC: 0.497; migration vs mock, HDLEC: 0.696; call: active

What did the screen give for OR10H4?
cell type with impaired migration: impaired only in lymphatic endothelial cells; migration vs mock, HMBEC: 0.764; migration vs mock, HDLEC: 0.64; call: active

With PRR21, what does the deposit list?
cell type with impaired migration: impaired only in lymphatic endothelial cells; migration vs mock, HMBEC: 0.856; migration vs mock, HDLEC: 0.613; call: active

With CHSY3, how do the results read?
cell type with impaired migration: no change in either cell type; migration vs mock, HMBEC: 0.802; migration vs mock, HDLEC: 0.762; call: inactive

For PLPP3, what was measured?
cell type with impaired migration: impaired in both blood and lymphatic cells; migration vs mock, HMBEC: 0.631; migration vs mock, HDLEC: 0.531; call: active

What is on record for SPICE1?
cell type with impaired migration: impaired in both blood and lymphatic cells; migration vs mock, HMBEC: 0.296; migration vs mock, HDLEC: 0.625; call: active

With NFATC4, how do the results read?
cell type with impaired migration: impaired in both blood and lymphatic cells; migration vs mock, HMBEC: 0.637; migration vs mock, HDLEC: 0.37; call: active

For TNFRSF8, how do the results read?
cell type with impaired migration: no change in either cell type; migration vs mock, HMBEC: 0.72; migration vs mock, HDLEC: 0.686; call: inactive

How did the screen score MICAL2?
cell type with impaired migration: impaired in both blood and lymphatic cells; migration vs mock, HMBEC: 0.397; migration vs mock, HDLEC: 0.596; call: active
